# Screening data

Source: PubChem BioAssay AID912 (NCATS, 2007).

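A cell-based FRET test of anthrax lethal toxin entry, tracked through the 460 nm emission signal; the cell line is not named here. Each compound was tested as a concentration series from about 0.0005 to 40 µM. The number is the fitted AC50 of the 460 nm signal alone; lower values mean a more potent effect. A falling signal goes with compounds filed as inhibitors or cytotoxic, a rising one with activators or fluorescent compounds (inferred from the filed classes).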

Values are in µM. Common to all entries: measured here: 460 nm channel. Part of the compounds only, not a random draw; the main read-out is not listed here. Potencies fitted to partial, single-point or poorly fitting curves are rough. The first word of each remark tells which way the curve ran; it can be opposite to the aim of the assay.

For O=c1oc(-c2ccco2)nc2ccccc12 the result was AC50 31.62 µM (falling, single point). N#Cc1c(N)sc(=S)c2c1CCCC2 gave AC50 12.59 µM (falling, partial curve). COc1ncc2nc(-c3ccc(F)cc3)c(=O)n(C3CC3)c2n1 gave AC50 25.12 µM (rising, single point). Result for CCc1cc2c(CN3CCN(CC)CC3)cc(=O)oc2cc1O was AC50 12.59 µM (rising, partial curve). With O=C(COc1ccc(S(=O)(=O)NC2CCCCC2)cc1Cl)NCC1CCCO1 (stereo not given) the assay gave AC50 1.995 µM (rising, full curve).

For CC(=O)N[C@@H](Cc1c[nH]c2ccccc12)C(=O)OCc1cc(C(F)(F)F)cc(C(F)(F)F)c1 the result was AC50 12.59 µM (falling, single point). For CC(C)(C=O)Cc1cc(C(C)(C)C)c(O)c(C(C)(C)C)c1 the result was AC50 25.12 µM (falling, partial curve). COC(=O)C1=C(C)N(C)C(C)=C(C(=O)OC)C1c1cccc(Br)c1 read AC50 15.85 µM (falling, single point). CC1(C)CC(=O)C2=C(C1)OC(/N=C/N1CCOCC1)=C(C#N)C2c1ccccc1 (stereo not given) gave AC50 0.631 µM (rising, full curve). O=C(COC(=O)c1cccnc1)c1ccc(Cl)cc1 read AC50 0.7943 µM (rising, full curve).

For C[C@@]12CC[C@@H]3c4ccc(O)cc4C[C@H](CCCCCCCCCS(=O)CCCC(F)(F)C(F)(F)F)[C@H]3[C@@H]1CC[C@@H]2O (stereo not given in full) the result was AC50 1.259 µM (falling, full curve). COc1cccc(-c2nc(N(C)Cc3ccco3)c3ccccc3n2)c1 gave AC50 31.62 µM (falling, single point). With Cn1c(SCC(=O)N2CCOCC2)nnc1-c1cnccn1 the assay gave AC50 31.62 µM (rising, partial curve, poor fit). O=C(CN1C(=O)NC2(CCCCC2)C1=O)Nc1ccccc1Cl read AC50 7.943 µM (rising, partial curve). ClC(Cl)=C(c1ccc(Cl)cc1)c1ccc(Cl)cc1 gave AC50 3.981 µM (falling, full curve).

With CCCc1cc2c(c(=O)o1)C(O)C1OC1C2=O (stereo not given) the assay gave AC50 3.981 µM (falling, single point). Result for COc1ccc(-c2nc3cnc(N4CCN(C)CC4)nc3n(CCc3ccccc3)c2=O)cc1 was AC50 1.995 µM (rising, full curve). For COc1ccc(C[C@@H]2NC[C@H](O)[C@@H]2OC(C)=O)cc1 the result was AC50 0.1 µM (falling, full curve). Cc1onc(-c2ccccc2)c1C(=O)Nc1ccc(S(=O)(=O)N2CCCCC2)cc1 gave AC50 12.59 µM (falling, partial curve). Result for O=C(Cn1c(=O)c2c(ncn2Cc2ccccc2)n(Cc2ccccc2)c1=O)N1CCCC1 was AC50 25.12 µM (rising, single point).

With Cc1nn(Cc2c(Cl)cccc2Cl)c(C)c1NC(=O)c1cc(C(C)C)on1 the assay gave AC50 31.62 µM (falling, single point). With N/N=C1/c2ccccc2N[C@H]1OC(=O)Nc1cccc(Cl)c1 the assay gave AC50 3.981 µM (falling, partial curve). Cc1cc(O)c(-c2cc(O)c(C)cc2O)cc1O read AC50 3.981 µM (falling, partial curve). With COc1ccc(-n2c(=O)c(-c3cn(C)c4ccccc34)nc3cnc(N4CCOCC4)nc32)cc1 the assay gave AC50 2.512 µM (rising, full curve). CCOc1ccc2nc(NC(=O)Nc3cccs3)sc2c1 gave AC50 7.943 µM (falling, partial curve).

CCCCn1nc(C(=O)NC2=NCCS2)c2ccccc2c1=O gave AC50 10 µM (rising, single point).

Some entries from above, unchanged:

- CCCc1cc2c(c(=O)o1)C(O)C1OC1C2=O (stereo not given) : AC50 3.981 µM (falling, single point)
- CC(C)(C=O)Cc1cc(C(C)(C)C)c(O)c(C(C)(C)C)c1 : AC50 25.12 µM (falling, partial curve)
- COc1cccc(-c2nc(N(C)Cc3ccco3)c3ccccc3n2)c1 : AC50 31.62 µM (falling, single point)